{"source": "patent US8076321B2", "about": "“Compositions for treatment of systemic mastocytosis” (priority 2005, dated 2011)", "key": {"[1]": {"test_system": "non-transfected Ba/F3 cells", "conditions": "not shown"}, "[2]": {"test_system": "Ton.Kit.wt cells (Ba/F3 with inducible wt KIT)", "assay": "cells", "conditions": "Mus musculus, BaF3, 48 h, read-out: IC50, SCF-dependent growth of doxycycline-exposed Ton.Kit.wt cells"}}}
{"smiles": "CO[C@@H]1[C@H](N(C)C(=O)c2ccccc2)C[C@H]2O[C@]1(C)n1c3ccccc3c3c4c(c5c6ccccc6n2c5c31)C(=O)NC4", "note": "[PKC412, N-[(9S,10R,11R,13R)-2,3,10,11,12,13-hexahydro-10-methoxy-9-methyl-1-oxo-9,13-epoxy-1H,9H-diindolo[1,2,3-gh:3′,2′,1′-1m]pyrrolo[3,4-j][1,7]benzodiazonin-11-yl]-N-methylbenzamide]", "values": [{"measurement": "growth-inhibitory effect on control (non-transfected) Ba/F3 cells", "setting": "[1]", "result": "neither doxycycline (1 μg/ml), nor the TK inhibitors (imatinib, PKC412, AMN107), showed growth-inhibitory effects"}, {"measurement": "IC50", "setting": "[2]", "result": "3 to 30", "unit": "nM"}]}
